# The list shows a part of the results. Single values of this set are uncertain.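 Many melting curves are irregular; where none melted, Tm was taken as 64 °C.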
# Protein sequences, listed by entry. Tags and fused reporters are not part of them. Lines headed by an entry give the natural chain unless they say otherwise; changes in a name come on top.
# UniProt Q68CZ1: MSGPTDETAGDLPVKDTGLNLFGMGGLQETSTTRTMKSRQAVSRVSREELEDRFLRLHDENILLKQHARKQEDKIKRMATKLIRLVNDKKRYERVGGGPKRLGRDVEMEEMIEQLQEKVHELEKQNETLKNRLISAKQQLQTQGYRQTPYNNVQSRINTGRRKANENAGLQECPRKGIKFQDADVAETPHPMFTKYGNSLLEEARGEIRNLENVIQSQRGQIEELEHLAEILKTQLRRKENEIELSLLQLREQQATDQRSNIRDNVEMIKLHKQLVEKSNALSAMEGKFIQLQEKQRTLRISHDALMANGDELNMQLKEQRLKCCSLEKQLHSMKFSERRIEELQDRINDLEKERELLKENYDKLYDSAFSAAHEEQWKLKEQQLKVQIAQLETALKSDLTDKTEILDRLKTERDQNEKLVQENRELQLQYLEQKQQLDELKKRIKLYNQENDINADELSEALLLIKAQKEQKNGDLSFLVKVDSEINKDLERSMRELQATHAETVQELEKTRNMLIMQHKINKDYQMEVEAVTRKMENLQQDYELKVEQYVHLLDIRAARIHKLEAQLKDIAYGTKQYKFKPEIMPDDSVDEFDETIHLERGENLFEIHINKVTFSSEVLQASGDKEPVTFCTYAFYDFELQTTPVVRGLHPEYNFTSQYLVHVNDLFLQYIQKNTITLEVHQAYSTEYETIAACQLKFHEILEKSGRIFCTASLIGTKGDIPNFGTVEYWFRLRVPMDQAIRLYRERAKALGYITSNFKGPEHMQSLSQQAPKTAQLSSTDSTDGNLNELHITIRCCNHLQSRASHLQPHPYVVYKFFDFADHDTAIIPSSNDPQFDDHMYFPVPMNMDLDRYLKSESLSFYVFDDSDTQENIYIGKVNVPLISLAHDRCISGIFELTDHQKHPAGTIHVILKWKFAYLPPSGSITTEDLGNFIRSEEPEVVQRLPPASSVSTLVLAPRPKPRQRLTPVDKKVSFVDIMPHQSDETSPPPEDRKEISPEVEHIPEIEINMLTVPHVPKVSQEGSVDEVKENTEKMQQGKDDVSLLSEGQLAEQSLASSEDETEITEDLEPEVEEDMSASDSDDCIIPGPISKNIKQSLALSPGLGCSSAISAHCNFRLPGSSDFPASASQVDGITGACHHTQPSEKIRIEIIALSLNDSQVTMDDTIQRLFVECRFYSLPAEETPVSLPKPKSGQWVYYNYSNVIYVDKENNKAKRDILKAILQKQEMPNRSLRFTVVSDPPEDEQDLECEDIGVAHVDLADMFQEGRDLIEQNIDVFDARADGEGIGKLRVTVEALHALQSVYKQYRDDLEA
# UniProt Q5VV42: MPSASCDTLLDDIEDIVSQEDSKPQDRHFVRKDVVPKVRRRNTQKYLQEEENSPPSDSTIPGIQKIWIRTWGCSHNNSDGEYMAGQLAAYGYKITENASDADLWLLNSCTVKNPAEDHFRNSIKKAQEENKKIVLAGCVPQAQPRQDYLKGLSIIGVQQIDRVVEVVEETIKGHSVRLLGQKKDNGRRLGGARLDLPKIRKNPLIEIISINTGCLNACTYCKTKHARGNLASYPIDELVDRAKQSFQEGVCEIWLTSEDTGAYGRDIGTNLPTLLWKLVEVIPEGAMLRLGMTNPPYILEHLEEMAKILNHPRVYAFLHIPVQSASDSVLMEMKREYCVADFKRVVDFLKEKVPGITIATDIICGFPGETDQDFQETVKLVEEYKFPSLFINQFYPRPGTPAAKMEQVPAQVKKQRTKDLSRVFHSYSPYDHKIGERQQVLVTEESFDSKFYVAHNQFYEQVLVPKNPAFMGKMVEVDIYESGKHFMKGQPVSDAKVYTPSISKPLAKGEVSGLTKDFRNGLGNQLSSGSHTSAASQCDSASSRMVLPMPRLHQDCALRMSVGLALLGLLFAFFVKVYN
# UniProt Q6NUK1: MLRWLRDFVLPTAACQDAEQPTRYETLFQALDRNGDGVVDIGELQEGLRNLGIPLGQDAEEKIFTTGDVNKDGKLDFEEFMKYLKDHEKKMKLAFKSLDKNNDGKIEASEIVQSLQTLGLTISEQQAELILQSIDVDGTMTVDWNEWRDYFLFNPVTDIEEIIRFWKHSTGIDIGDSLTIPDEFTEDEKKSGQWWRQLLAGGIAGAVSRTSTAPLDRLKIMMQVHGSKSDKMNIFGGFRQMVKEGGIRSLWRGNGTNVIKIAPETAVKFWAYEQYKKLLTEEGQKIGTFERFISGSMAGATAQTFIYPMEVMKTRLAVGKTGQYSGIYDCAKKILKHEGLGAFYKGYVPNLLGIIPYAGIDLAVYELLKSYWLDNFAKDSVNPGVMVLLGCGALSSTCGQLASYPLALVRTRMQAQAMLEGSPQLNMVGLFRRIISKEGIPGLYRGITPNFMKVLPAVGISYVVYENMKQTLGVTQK
# UniProt Q6GMV2: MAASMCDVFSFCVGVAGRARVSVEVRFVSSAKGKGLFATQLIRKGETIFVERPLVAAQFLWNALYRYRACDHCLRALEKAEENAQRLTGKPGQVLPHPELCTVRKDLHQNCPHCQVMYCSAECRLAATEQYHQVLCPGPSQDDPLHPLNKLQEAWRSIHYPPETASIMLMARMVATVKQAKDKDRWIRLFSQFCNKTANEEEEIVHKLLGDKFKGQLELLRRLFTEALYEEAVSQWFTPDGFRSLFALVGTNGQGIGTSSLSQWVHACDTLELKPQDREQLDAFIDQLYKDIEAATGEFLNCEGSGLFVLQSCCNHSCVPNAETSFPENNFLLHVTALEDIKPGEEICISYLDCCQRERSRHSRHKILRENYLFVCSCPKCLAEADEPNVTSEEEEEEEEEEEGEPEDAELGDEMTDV
# UniProt Q5M775: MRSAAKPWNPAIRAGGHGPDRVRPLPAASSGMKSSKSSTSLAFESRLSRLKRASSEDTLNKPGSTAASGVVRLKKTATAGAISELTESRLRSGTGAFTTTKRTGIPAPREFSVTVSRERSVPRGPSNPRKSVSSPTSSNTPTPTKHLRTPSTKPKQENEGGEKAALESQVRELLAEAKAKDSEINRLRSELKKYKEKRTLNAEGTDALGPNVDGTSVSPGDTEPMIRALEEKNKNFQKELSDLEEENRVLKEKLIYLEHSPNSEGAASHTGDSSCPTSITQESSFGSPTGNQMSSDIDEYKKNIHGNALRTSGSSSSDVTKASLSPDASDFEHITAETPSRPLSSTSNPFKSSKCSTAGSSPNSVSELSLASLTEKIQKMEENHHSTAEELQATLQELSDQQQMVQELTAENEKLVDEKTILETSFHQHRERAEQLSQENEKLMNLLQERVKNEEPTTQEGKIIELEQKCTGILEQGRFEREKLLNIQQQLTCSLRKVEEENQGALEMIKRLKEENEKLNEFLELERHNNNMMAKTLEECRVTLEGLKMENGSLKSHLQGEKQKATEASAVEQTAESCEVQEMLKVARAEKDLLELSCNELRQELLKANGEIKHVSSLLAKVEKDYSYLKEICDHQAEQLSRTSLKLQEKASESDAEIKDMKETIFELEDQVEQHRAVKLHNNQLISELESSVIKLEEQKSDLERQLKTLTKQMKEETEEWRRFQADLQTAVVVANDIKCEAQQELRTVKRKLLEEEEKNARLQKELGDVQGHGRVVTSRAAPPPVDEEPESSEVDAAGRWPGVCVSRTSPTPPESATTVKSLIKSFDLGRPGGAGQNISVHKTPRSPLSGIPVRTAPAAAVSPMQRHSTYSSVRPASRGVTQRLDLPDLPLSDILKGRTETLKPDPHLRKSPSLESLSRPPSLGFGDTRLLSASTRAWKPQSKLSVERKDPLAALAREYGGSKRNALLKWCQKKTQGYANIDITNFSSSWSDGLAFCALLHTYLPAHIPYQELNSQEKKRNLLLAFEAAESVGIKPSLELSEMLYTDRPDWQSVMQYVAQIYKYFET
# UniProt Q6IQ22: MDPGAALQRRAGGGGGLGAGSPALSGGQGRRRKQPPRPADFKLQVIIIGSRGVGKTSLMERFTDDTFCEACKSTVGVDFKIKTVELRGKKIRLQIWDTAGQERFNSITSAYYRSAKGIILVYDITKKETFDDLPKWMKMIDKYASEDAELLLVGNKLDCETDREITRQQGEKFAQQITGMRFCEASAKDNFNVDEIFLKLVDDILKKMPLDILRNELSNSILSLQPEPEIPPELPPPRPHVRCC
# UniProt Q5T0N5: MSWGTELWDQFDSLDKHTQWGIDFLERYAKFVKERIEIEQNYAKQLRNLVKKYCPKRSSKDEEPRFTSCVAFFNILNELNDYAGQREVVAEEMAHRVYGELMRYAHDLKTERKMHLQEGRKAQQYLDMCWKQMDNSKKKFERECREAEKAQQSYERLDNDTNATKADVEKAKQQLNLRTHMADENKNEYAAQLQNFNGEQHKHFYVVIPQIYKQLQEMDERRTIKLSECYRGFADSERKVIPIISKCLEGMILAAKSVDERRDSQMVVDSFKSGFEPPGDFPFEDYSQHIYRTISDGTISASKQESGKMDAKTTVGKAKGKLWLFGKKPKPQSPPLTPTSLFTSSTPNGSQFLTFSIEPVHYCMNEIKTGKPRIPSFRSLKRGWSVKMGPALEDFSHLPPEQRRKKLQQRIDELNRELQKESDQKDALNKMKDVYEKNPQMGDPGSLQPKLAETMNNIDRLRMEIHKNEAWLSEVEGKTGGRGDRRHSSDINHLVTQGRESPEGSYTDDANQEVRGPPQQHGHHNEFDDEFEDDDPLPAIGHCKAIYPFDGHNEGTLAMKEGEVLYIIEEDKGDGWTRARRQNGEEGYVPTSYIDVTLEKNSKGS
# UniProt Q68CP9, whole entry: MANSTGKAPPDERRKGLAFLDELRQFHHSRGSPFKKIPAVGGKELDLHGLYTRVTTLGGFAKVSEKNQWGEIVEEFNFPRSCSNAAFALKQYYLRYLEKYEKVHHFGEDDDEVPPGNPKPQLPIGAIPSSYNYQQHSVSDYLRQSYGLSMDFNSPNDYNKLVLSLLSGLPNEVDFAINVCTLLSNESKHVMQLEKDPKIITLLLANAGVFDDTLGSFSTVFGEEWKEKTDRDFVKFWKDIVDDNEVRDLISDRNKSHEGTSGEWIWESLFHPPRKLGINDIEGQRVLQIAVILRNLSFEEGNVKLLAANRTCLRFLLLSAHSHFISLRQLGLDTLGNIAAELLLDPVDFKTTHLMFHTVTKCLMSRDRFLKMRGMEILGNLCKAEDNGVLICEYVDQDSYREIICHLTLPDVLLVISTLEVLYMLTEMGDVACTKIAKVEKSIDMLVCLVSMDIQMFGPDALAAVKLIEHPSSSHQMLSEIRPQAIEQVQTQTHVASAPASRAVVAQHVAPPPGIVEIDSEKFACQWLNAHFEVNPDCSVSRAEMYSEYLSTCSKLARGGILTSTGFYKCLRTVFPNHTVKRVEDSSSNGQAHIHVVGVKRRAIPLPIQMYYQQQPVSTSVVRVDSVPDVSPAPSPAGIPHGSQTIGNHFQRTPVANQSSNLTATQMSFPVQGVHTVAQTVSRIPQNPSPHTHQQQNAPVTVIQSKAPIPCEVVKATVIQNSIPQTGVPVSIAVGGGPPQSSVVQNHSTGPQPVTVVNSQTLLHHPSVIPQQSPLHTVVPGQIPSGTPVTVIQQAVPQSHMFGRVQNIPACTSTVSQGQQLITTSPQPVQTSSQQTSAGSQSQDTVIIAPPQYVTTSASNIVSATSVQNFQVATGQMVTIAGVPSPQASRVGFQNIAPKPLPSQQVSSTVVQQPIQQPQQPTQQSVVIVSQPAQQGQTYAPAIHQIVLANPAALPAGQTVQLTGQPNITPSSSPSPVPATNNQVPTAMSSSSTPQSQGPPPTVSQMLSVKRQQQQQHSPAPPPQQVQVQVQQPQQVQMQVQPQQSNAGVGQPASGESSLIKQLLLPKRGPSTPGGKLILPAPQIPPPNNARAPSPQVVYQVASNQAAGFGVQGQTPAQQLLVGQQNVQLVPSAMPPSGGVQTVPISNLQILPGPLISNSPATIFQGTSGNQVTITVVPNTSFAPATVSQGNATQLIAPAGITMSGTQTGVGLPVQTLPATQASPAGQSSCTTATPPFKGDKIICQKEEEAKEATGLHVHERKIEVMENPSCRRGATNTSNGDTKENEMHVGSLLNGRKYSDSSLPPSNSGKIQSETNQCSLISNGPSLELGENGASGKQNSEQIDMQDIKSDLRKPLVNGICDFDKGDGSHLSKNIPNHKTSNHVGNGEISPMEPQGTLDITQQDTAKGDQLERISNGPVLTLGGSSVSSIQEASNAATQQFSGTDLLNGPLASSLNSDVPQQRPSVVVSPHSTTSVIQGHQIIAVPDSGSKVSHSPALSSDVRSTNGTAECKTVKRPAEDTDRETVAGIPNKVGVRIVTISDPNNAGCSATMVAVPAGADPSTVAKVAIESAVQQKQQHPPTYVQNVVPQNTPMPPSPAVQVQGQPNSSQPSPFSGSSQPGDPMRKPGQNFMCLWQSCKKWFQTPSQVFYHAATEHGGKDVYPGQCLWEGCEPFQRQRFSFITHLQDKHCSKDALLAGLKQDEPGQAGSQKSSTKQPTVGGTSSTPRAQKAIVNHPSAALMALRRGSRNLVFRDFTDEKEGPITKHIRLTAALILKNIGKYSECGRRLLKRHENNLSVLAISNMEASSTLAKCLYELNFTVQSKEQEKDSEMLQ
# Compound: CCc1cnccc1C(=O)Nc1cc2c(cc1F)NC(=O)CC2
# Test: melting temperature shift (DMSO Tm minus MBE1-treated Tm) in cellular thermal proteome profiling; higher = less thermal stabilization by MBE1 (negative = stabilized by MBE1)
# Conditions: A375; MBE1 concentration: 100 nM
row,Target,melting temperature shift
1,UniProt Q5T7W0,-3.76 °C
2,C10ORF76 (UniProt Q5T2E6),-0.769 °C
3,WDR73 (UniProt Q6P4I2),-0.181 °C
4,UniProt Q68CZ1,-0.269 °C
5,ARMC6 (UniProt Q6NXE6),-0.115 °C
6,CDKAL1 (UniProt Q5VV42),0.717 °C
7,SLC25A24 (UniProt Q6NUK1),-1.03 °C
8,MAP1S (UniProt Q66K74),0.891 °C
9,UniProt Q6NSI4,-0.523 °C
10,STRIP1 (UniProt Q5VSL9),0.165 °C
11,SMYD5 (UniProt Q6GMV2),-1.07 °C
12,SPECC1 (UniProt Q5M775),0.94 °C
13,RAB12 (UniProt Q6IQ22),-0.833 °C
14,THOC7 (UniProt Q6I9Y2),0.611 °C
15,TTI2 (UniProt Q6NXR4),0.354 °C
16,ALKBH2 (UniProt Q6NS38),-0.464 °C

row,Target,melting temperature shift
1,CEP78 (UniProt Q5JTW2),-1.75 °C
2,HIBCH (UniProt Q6NVY1),0.91 °C
3,COQ5 (UniProt Q5HYK3),-0.824 °C
4,UniProt Q6F5E8,-1.64 °C
5,RABL3 (UniProt Q5HYI8),-0.221 °C
6,DUS1L (UniProt Q6P1R4),-0.391 °C
7,NIPBL (UniProt Q6KC79),-0.192 °C
8,FNBP1L (UniProt Q5T0N5),0.617 °C
9,ARID2 (UniProt Q68CP9),-0.282 °C
10,UniProt Q68CP4,-0.19 °C
11,IBA57 (UniProt Q5T440),-0.443 °C
12,DAB2IP (UniProt Q5VWQ8),-1.94 °C
13,UniProt Q5T2N8,-0.742 °C
14,UniProt Q6P1R3,0.892 °C
15,UniProt Q6P3S6,-2.05 °C
16,ZCCHC6 (UniProt Q5VYS8),-1 °C

# Part of the list above in another layout.
row	Target	melting temperature shift
2	C10ORF76 (UniProt Q5T2E6)	-0.769 °C
4	UniProt Q68CZ1	-0.269 °C
6	CDKAL1 (UniProt Q5VV42)	0.717 °C
9	UniProt Q6NSI4	-0.523 °C
10	STRIP1 (UniProt Q5VSL9)	0.165 °C
15	TTI2 (UniProt Q6NXR4)	0.354 °C
9	ARID2 (UniProt Q68CP9)	-0.282 °C
14	UniProt Q6P1R3	0.892 °C
